## Microarray screen: hit calls

Source: the ROBIN nucleic acid binder screens (doi:10.1002/anie.202211358).

Targets (5′ to 3′):
T1: TPP riboswitch RNA three-way junction, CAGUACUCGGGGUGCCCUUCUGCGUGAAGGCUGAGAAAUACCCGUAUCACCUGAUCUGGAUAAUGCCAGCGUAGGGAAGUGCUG. Hit rate about 0.7% of about 24,000 compounds.
T2: PreQ1 riboswitch RNA pseudoknot, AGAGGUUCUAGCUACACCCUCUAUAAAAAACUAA. From B. subtilis. Hit rate about 0.7% of about 24,000 compounds.
T3: SAM-II riboswitch RNA pseudoknot, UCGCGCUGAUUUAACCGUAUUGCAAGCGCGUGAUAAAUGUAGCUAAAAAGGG. Hit rate about 1% of about 21,000 compounds.

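The test is a small-molecule microarray: each compound is printed twice on a reactive slide, and binding shows as fluorescence of the labelled oligonucleotide after washing. For the PreQ1, TPP and SAM-II riboswitches the laboratory earlier reported (doi:10.1038/s41467-019-09493-3) 1 µM RNA, 2 h, and a rule that included a mean Z-score above 3 (spot signal-to-noise against the whole library), a score well above that on a control array, and duplicate spots agreeing (coefficient of variation under 100). The data file gives only the calls; its cut-offs may differ, and compounds hitting several targets are kept. The calls come from the array alone, and fixing a compound to the slide can hide its binding.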
Key: active = hit, inactive = tested without a hit.
The compounds are a random part of those screened.
A dash means that no call is listed here.

Compound	T1	T2	T3
Nc1ncnc(N2CCCc3ccccc32)n1	inactive	inactive	inactive
CN1C(C(=O)Nc2ccccn2)=C(O)c2ccccc2S1(=O)=O	inactive	inactive	inactive
CN(CCCc1nccn1C)c1nc(-c2ccncc2)nc2c1CCNC2	inactive	inactive	inactive
NS(=O)(=O)c1ccc(/N=N/c2c(O)c(C(=O)O)cc3ccccc23)cc1	inactive	inactive	inactive
N#Cc1c(N)nc2c(c1-c1ccccc1)CCCCC2	inactive	inactive	inactive
Cc1nnc(CCNC(=O)c2cn([C@H]3CC[C@@H](N)CC3)nn2)s1	inactive	inactive	inactive
Cc1ccc(Cl)cc1Nc1nc2ccccc2c2nnc(C)n12	inactive	inactive	-
Cc1ccc(Cn2c(CCNC(=O)CCC(C)O)nc3ccccc32)cc1 (stereo not drawn)	inactive	inactive	-
Cc1ccc(S(=O)(=O)CCc2nnc(N)s2)cc1C	inactive	inactive	inactive
COC(C)(C)CC(C)NCc1nncn1C1CCCCC1 (stereo not drawn)	inactive	inactive	inactive
COc1ccc(-c2c3c(nc4sc(C(=O)c5ccc(F)cc5)c(N)c24)CCCC3)cc1OC	inactive	inactive	inactive
CC(=O)Nc1ccc(OC(=O)Oc2ccc(NC(C)=O)cc2)cc1	inactive	inactive	inactive
COc1ccc2[nH]c(C)c(CCNCC(C)Cc3ccc4c(c3)OCO4)c2c1 (stereo not drawn)	inactive	inactive	inactive
CCOc1ccc(S(=O)(=O)[C@H]2CS(=O)(=O)C[C@@H]2NCc2ccccc2)cc1	inactive	inactive	-
COc1ccc2cc(C(=O)NCC3(O)CCCNCC3)n(C)c2c1 (stereo not drawn)	inactive	inactive	inactive
Cc1c(Cl)cccc1S(=O)(=O)N1[C@H]2CCNC[C@@H]1CC2	inactive	inactive	inactive
O=c1[nH]c2c(cnn2-c2ccc(Cl)cc2)c(=O)n1-c1cccc(Cl)c1	inactive	inactive	inactive
OCc1ccc(CNCc2cc(O)c3cccc(Cl)c3n2)cc1	inactive	inactive	inactive
CCCCNCC(=O)c1c[nH]c2ccccc12	inactive	inactive	inactive
CS(=O)(=O)N1CCCN(C(=O)c2ccccc2C2CCNC2)CC1 (stereo not drawn)	inactive	inactive	inactive
CC(C)CC(NC=O)C(=O)O.COc1cc2c(cc1OC)C13CCN4CC5=CCOC6CC(=O)N2C1C6C5CC43 (stereo not drawn)	inactive	inactive	inactive
CCc1nc2nc(C)cc(Nc3cccc(C(F)(F)F)c3)n2n1	inactive	inactive	inactive
Cc1c(-c2csc(N)n2)c2ccccc2n1C	inactive	inactive	inactive
CC(CO)CN(Cc1ccccc1)C(=O)c1cccc2cccnc12 (stereo not drawn)	inactive	inactive	inactive
COc1ccc(N2CC(C)Cn3c2nc2c3c(=O)n(CCCO)c(=O)n2C)cc1 (stereo not drawn)	inactive	inactive	-
O=C1c2ccccc2C(=Cc2cccnc2)c2ccccc21	inactive	inactive	inactive
Cc1cn2c3c(=O)n(C)c(=O)n(C)c3nc2n1CCCO	inactive	inactive	inactive
COCCn1cnnc1CCNCc1cc(O)c2cc(C)cc(C)c2n1	inactive	inactive	inactive
CC(O)CN1CC2(CCC1=O)CCN(C(=O)Cc1cccs1)CC2 (stereo not drawn)	inactive	inactive	inactive
COc1cc(CNC2CC2)ccc1OCc1ccc2c(c1)n(C)c(=O)n2C	inactive	inactive	-
C[C@@H]1C(=O)O[C@H]2CC34[C@H]5C[C@@H](C(C)(C)C)C36[C@H](OC(=O)[C@@H]6O)O[C@@]4(C(=O)O5)[C@]21O (stereo partly drawn)	inactive	inactive	inactive
Nc1nc(N2CCOCC2)nc2c1C(c1cccc3c1OCO3)CC(=O)N2 (stereo not drawn)	inactive	inactive	inactive
Cc1cc(-n2cnc3c(=O)nc[nH]c32)ccc1N	inactive	inactive	inactive
COc1cc(NC2c3ccccc3C(=O)N2c2ccccc2C)cc(OC)c1 (stereo not drawn)	inactive	inactive	inactive
O=C(NCCc1ccccc1)c1nn(-c2ccc(Cl)cc2)nc1CO	inactive	inactive	-
CCc1nc(N)nc(N2CCN(C3CCSCC3)CC2)c1C	inactive	inactive	inactive
Cc1ccccc1N1C(N)=C(C#N)C(c2ccsc2)C2=C1CC(C)(C)CC2=O (stereo not drawn)	inactive	inactive	inactive
Brc1ccc2ncnc(NCCc3ccccc3)c2c1	inactive	inactive	inactive
COc1ccc2c(c1OC)C(=O)OC2Nc1ccc(S(N)(=O)=O)cc1 (stereo not drawn)	inactive	inactive	inactive
Cc1nc(Nc2ccccc2)nc2c1C(=O)CCC2	inactive	inactive	-
CC(C)(C)OC(=O)Nc1ccc(-c2cc(C(=O)NCCCCCCC(=O)NO)no2)cc1	inactive	inactive	inactive
Cc1c(O)ccc2c(O)c(NC(=O)c3ccc4c(c3)CCC(C)(C)O4)c(=O)oc12	inactive	inactive	inactive
CCOc1ccc(-c2nc(N)nc(C(F)(F)F)c2-c2ccccc2)c(O)c1	inactive	inactive	inactive